Source: PubChem BioAssay AID2202234 (NCATS, 2025).

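The 48-hour survival of the MECOM-rearranged AML line HNT-34 was tracked by a luminescent ATP-based reagent.
Each compound was run as a dilution series that mostly topped out at 46 µM.
The value is the concentration giving half of the fitted maximal loss of viability; smaller values mean stronger inhibitors.
Calls come from the fitted dose curve, and inconclusive marks inhibition that is small, poorly fitted or seen only at the highest dose.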

Values are in µM.
All entries here are filed as inconclusive.
Only part of the assay is shown, chiefly results filed as inconclusive.
Potencies fitted to partial, single-point or poorly fitting curves are rough.
Some entries filed as inconclusive have a full curve.

| compound | Potency (µM) | curve |
|---|---|---|
| `C=C1C[C@H]2C=Nc3cc(OCCCOc4cc5c(cc4OC)C(=O)N4CC(=C)C[C@H]4C=N5)c(OC)cc3C(=O)N2C1` | 0.0019 | inhibitor, full curve, poor fit |
| `Cc1cc(O)cc2c1[C@]1(C)CC[C@H]3C(C)(C)CCC[C@]3(C)[C@H]1C2` | 0.0015 | inhibitor, full curve, poor fit |
| `CN(C(=O)c1ccc(F)cc1C(F)(F)F)C1CCN(c2nnc(-c3ccnn3C)c3ccccc23)CC1` | 26.33 | inhibitor, partial curve, poor fit |
| `COc1cccc([C@@H](C)NCCCc2ccccc2Cl)c1` | 18.64 | inhibitor, partial curve, poor fit |
| `NS(=O)(=O)c1ccc(Nc2nc(OCC3CCCCC3)c3[nH]cnc3n2)cc1` | 2.955 | inhibitor, full curve |
| `NC(=O)c1ccc(-c2nc(-c3ccc4c(c3)OCCO4)c(-c3ccccn3)[nH]2)cc1` | 37.2 | inhibitor, single point |
| `C=CC(=O)N1CC(N2CCN(C(=O)CNc3cc(C4(C)CC4)c(Cl)cc3O)CC2)C1` | 37.2 | inhibitor, single point |
| `COc1cc(OC)c2c(=O)[nH]c(-c3cc(C)c(OCCO)c(C)c3)nc2c1` | 13.2 | inhibitor, partial curve |
| `Cc1cccc(-c2nn(C(=S)Nc3ccccc3)cc2-c2ccnc3ccccc23)n1` | 13.2 | inhibitor, partial curve |
| `C[C@H](NC(=O)C(=O)Nc1ccccc1C(C)(C)C)C(=O)N[C@@H](CC(=O)O)C(=O)COc1c(F)c(F)cc(F)c1F` | 14.81 | inhibitor, partial curve |
| `Cc1cc(N2CCOCC2)ccc1Nc1nc(NC2CCCCC2)c2[nH]cnc2n1` | 1.048 | inhibitor, full curve |
| `O=C1S/C(=C\c2ccc(OCc3cccc(B(O)O)c3)cc2)C(=O)N1Cc1ccc(F)cc1` | 18.64 | inhibitor, partial curve |
| `O=C(NCCCNc1nc(Nc2cccc(NC(=O)N3CCCC3)c2)ncc1I)c1cccs1` | 5.254 | inhibitor, full curve |
| `Cc1cnc(-c2ccccc2C(C)C)nc1NCc1ccc(-n2ccnn2)cc1` | 7.422 | inhibitor, full curve, poor fit |
| `Cc1ccc(Nc2cc(-c3cccc(N4C(=O)c5ccccc5C4=O)c3)ncn2)cc1NS(C)(=O)=O` | 23.47 | inhibitor, partial curve |
| `CO[C@H]1C(=O)[C@]2(C)[C@@H](OC)C[C@H]3OC[C@@]3(OC(C)=O)[C@H]2[C@H](OC(=O)c2ccccc2)[C@]2(O)C[C@H](OC(=O)[C@H](O)[C@@H](NC(=O)OC(C)(C)C)c3ccccc3)C(C)=C1C2(C)C` | 0.0019 | inhibitor, full curve |
| `C=CC(=O)N1C[C@H](Nc2ncnc3[nH]ccc23)CC[C@@H]1C` | 23.47 | inhibitor, single point |
| `O=c1c(-n2ccnn2)c[nH]n1-c1cc(N2CCOCC2)ncn1` | 26.33 | inhibitor, single point |
| `CS(=O)c1ccc(-c2nc(-c3ccc(F)cc3)c(-c3ccncc3)[nH]2)cc1` (stereo unspecified) | 37.2 | inhibitor, partial curve, poor fit |
| `NCCCC[C@H](NC(=O)[C@@H](NC(=O)[C@H](Cc1c[nH]c2ccccc12)NC(=O)[C@H](CCCCN)NC(=O)[C@H](CCCCN)NC(=O)[C@H](Cc1c[nH]c2ccccc12)NC(=O)[C@H](Cc1c[nH]c2ccccc12)NC(=O)[C@H](CCCCN)NC(=O)[C@@H](N)CCCCN)C(c1ccccc1)c1ccccc1)C(N)=O` | 37.2 | inhibitor, single point |
| `CC(C)c1ccccc1Cc1cc(C(=O)Nc2ccc(S(=O)(=O)c3ccccc3C(C)(C)C)cc2)c(O)c(O)c1O` | 9.344 | inhibitor, full curve |
| `Cc1c(CN2CCN(C(=O)[C@H](C)O)CC2)sc2c(N3CCOCC3)nc(-c3cnc(N)nc3)nc12` | 0.4683 | inhibitor, full curve, poor fit |
| `CC(C)c1onc(-c2c(Cl)cccc2Cl)c1COc1ccc(/C=C/c2cccc(C(=O)O)c2)c(Cl)c1` | 23.47 | inhibitor, single point |
| `CN1c2cc(O)c(N=NC(N)=O)cc2CC1S(=O)(=O)O` (stereo unspecified) | 37.2 | inhibitor, single point |
| `CC(C)n1cnc2c(NCCc3ccc(O)cc3)nc(-c3csc4ccccc34)nc21` | 33.15 | inhibitor, single point |
| `Cn1ncc2cc(-c3cnc(N)c(Cl)c3N3CCC4(CCNC4=O)CC3)ccc21` | 37.2 | inhibitor, single point |
| `CN[C@@H](C)C(=O)N[C@H](C(=O)N1CCC[C@H]1C(=O)Nc1sc(-c2ncco2)nc1-c1ccccc1)C1CCCCC1` | 0.132 | inhibitor, full curve, poor fit |
| `O=C(NCc1ccncc1)C12C[C@H]3C[C@@H](C1)CC(c1ccc(Cl)cc1)(C3)C2` | 26.33 | inhibitor, single point |
| `Cc1noc(-c2ccc(-c3ccc(C4(C(=O)O)CC4)cc3)cc2)c1NC(=O)O[C@H](C)c1ccccc1` | 20.92 | inhibitor, partial curve |
| `CC/C(=C(/CC)c1ccc(O)cc1)c1ccc(O)cc1` | 37.2 | inhibitor, single point |
| `COc1cc(OCc2cccc(-c3ccccc3)c2C)cc(OC)c1CN1CCCC[C@H]1C(=O)O` | 26.33 | inhibitor, single point |
| `O=C1Nc2ccc(Cl)cc2[C@@](C#CC2CC2)(C(F)(F)F)O1` | 26.33 | inhibitor, single point |
| `CO[C@@H]1C(N(C)C(=O)c2ccccc2)C[C@H]2O[C@]1(C)n1c3ccccc3c3c4c(c5c6ccccc6n2c5c31)C(=O)NC4=O` (stereo partly specified) | 2.633 | inhibitor, full curve |
| `CC(=O)O[C@]1(C(C)=O)CC[C@H]2[C@@H]3C=C(Cl)C4=CC(=O)[C@@H]5C[C@@H]5[C@]4(C)[C@H]3CC[C@@]21C` | 23.47 | inhibitor, partial curve |
| `CC(C)Oc1ccc(C(=O)N[C@H](CNC(=O)CN(C)C)Cc2ccc(-c3cn4cccc([C@H](C)O)c4n3)cc2)cc1Cl` | 0.2633 | inhibitor, full curve |
| `COC1CC(C(=O)c2ccc3c(N)ncc(-c4ccc(-c5cnn(C)c5)cc4)c3n2)C1` (stereo unspecified) | 13.2 | inhibitor, partial curve |
| `CCOC(=O)N[C@@H]1CC[C@@H]2[C@@H](C1)C[C@H]1C(=O)O[C@H](C)[C@H]1[C@H]2/C=C/c1ccc(-c2cccc(F)c2)cn1` | 23.47 | inhibitor, partial curve, poor fit |
| `Nc1ncn([C@H]2C[C@H](O)[C@@H](CO)O2)c(=O)n1` | 0.372 | inhibitor, full curve |
| `CC(C)NCCCn1c(Sc2cc(Cl)cc(Cl)c2)nc2c(N)ncnc21` | 23.47 | inhibitor, single point |
| `C[C@@H]1CC(=O)NN=C1c1ccc(NN=C(C#N)C#N)cc1` | 20.92 | inhibitor, partial curve |
| `CCOC(=N)c1nc2ccc3ncnc(Nc4cc(F)c(F)cc4Cl)c3c2s1` | 8.328 | inhibitor, full curve |

Once more, the final 3:

compound,Potency (µM),curve
CC(C)NCCCn1c(Sc2cc(Cl)cc(Cl)c2)nc2c(N)ncnc21,23.47,"inhibitor, single point"
C[C@@H]1CC(=O)NN=C1c1ccc(NN=C(C#N)C#N)cc1,20.92,"inhibitor, partial curve"
CCOC(=N)c1nc2ccc3ncnc(Nc4cc(F)c(F)cc4Cl)c3c2s1,8.328,"inhibitor, full curve"